Experimental findings from US12435352B2, “Mass spectrometric measurement of β-lactamase resistances” (Bruker Daltonics GmbH & Co. KG, priority 2010, dated 2025) are described below.

The data set relates to DH5a strain of E. coli. Nature of the data set: Mass spectrometric (MALDI-TOF) measurement of hydrolytic breakdown of substrate in bacterial suspension, non-resistant strain. Type of data set: cell-based. The conditions noted are these: DH5a strain of E. coli (no resistance); 10 mg/ml ampicillin solution; incubated three hours at 37° Celsius; FIG. 1 top.

In the case of `CC1(C)S[C@@H]2[C@H](NC(=O)[C@H](N)c3ccccc3)C(=O)N2[C@H]1C(=O)O` [ampicillin], the “breakdown of substrate (hydrolysis of β-lactam ring) seen in mass spectrum” value is “no breakdown”. For the compound `CC1(C)S[C@@H]2[C@H](NC(=O)[C@H](N)c3ccccc3)C(=O)N2[C@H]1C(=O)[O-].[Na+]` [sodium salt of ampicillin], the “breakdown of substrate (hydrolysis of β-lactam ring) seen in mass spectrum” value was “no breakdown”.
